Assay results from publication PMC11602245 (Journal of Peptide Science, 2024).

Experiment: general procedure: Fmoc solid-phase peptide synthesis; H-L-Cys(Trt)-2CT preloaded resin (0.71 mmol/g); HATU
Conditions: whole synthesis; for final HPLC purity: RP-HPLC at 220 nm (HPLC-MS system), scale of the general procedure 0.030 mmol; for isolated yield: scale 0.030 mmol

| Substance | final HPLC purity [%] | isolated yield [%] |
| --- | --- | --- |
| [DOTA,Asn^5‐Ψ[Tz]‐Phe^6,DTrp^8,Thr^10‐Ψ[NH]‐Phe^11]SST‐14 | >95 | 27 |
| [DOTA,Asn^5‐Ψ[Tz]‐Phe^6,DTrp^8,β‐Phe^11]SST‐14 | >95 | 32 |
| [DOTA,Asn^5‐Ψ[Tz]‐Phe^6,DTrp^8,N‐Me‐Phe^11]SST‐14 | >95 | 14 |
| [DOTA,Asn^5‐Ψ[Tz]‐Phe^6,DTrp^8]SST‐14 | >95 | 35 |

One purity is given for all peptides; the source may state it once.
